These are yes or no findings as the source states them, for the method shown. Binding seen in cells or lysates may run through a third protein. These calls come from enrichment with a bait or labelling near it, and not all partners need be listed. No binding means not detected with the bait. Tags and fused reporters may be left off the sequences shown.

For the test, the target named is T1, GFP-PRAG1-TurboID (Peak1-related, kinase-activating pseudokinase 1) (human) (UniProt Q86YV5).
T1 sequence: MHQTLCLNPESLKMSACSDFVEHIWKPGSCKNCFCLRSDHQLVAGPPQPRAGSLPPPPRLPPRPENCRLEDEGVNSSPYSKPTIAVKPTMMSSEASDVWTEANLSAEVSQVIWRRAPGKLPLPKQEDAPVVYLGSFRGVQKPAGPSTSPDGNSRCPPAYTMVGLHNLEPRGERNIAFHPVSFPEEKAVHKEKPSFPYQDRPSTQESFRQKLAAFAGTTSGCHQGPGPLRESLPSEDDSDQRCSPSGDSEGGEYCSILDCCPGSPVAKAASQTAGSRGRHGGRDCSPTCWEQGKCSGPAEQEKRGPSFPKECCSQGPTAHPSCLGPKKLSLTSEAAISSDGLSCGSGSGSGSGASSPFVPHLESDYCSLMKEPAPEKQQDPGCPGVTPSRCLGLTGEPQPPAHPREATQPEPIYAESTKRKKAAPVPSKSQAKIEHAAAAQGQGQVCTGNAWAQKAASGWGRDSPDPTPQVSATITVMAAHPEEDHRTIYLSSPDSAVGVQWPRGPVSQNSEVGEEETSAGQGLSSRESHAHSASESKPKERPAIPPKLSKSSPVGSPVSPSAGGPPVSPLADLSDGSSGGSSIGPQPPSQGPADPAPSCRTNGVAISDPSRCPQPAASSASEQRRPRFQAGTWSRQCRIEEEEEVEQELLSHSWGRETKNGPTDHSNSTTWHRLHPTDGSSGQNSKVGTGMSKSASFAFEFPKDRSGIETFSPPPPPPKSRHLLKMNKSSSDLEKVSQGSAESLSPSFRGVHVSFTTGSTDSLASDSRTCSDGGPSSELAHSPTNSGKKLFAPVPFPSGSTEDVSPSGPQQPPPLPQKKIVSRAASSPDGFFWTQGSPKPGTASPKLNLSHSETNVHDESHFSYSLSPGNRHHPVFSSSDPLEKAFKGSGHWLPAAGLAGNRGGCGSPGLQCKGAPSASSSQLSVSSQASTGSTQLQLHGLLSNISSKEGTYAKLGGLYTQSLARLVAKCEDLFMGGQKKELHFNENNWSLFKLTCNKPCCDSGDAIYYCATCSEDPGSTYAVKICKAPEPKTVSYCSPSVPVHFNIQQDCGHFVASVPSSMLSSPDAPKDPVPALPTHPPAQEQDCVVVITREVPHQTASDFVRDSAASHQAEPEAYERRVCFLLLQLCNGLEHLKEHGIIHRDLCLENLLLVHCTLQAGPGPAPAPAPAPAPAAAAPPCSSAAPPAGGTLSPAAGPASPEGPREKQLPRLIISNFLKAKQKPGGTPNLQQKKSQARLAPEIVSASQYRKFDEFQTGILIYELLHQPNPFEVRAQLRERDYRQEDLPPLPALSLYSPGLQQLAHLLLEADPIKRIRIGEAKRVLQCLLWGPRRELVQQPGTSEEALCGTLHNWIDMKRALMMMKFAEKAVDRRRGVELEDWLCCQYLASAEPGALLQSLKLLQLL
The test is described as follows: proximity labelling; TurboID: GFP-PRAG1-TurboID against GFP-TurboID in HEK293T cells, 500 µM biotin for 15 min at 37 °C, weak RIPA lysate, streptavidin magnetic beads, mass spectrometry, four biological replicates.

B1: RND2 (protein, UniProt P52198 1-227)
chain: MEGQSGRCKIVVVGDAECGKTALLQVFAKDAYPGSYVPTVFENYTASFEIDKRRIELNMWDTSGSSYYDNVRPLAYPDSDAVLICFDISRPETLDSVLKKWQGETQEFCPNAKVVLVGCKLDMRTDLATLRELSKQRLIPVTHEQGTVLAKQVGAVSYVECSSRSSERSVRDVFHVATVASLGRGHRQLRRTDSRRGMQRSAQLSGRPDRGNEGEIHKDRAKSCNLM
As to B1, the binding entry is “no binding”.

Values taken from publication PMC11939857.
